Measured values reported in PMC7862700.
This is a selection; strong and weak results do not stand in their true shares. At the low end of the ranking, values are background and their order means little.

Biological target: SPI1 (UniProt P17947)
Experiment: DAPPL (digital affinity profiling via proximity ligation, sequencing)
Conditions: 10 mM Tris-HCl pH 7.5, 50 mM NaCl, 1 mM DTT, 4% glycerol, room temperature, 30 min; GST-TFs on glutathione beads, 16-mer random dsDNA library, 0.1% …; high values mean tight binding; double strand, one strand shown; scale: fold enrichment (6-mer frequency, TF over GST control)

| Sequence | binding signal |
| --- | --- |
| CATTAC | 1.1 |
| CGCGCT | 1.1 |
| AGGTCC | 0.894 |
| ATTTTA | 1.34 |
| TTCTAT | 1.36 |
| ATAGCC | 0.991 |
| CCCATC | 1.11 |
| AGCTGT | 0.965 |
| CGAAGT | 0.883 |
| ATTCGC | 1.21 |
| CACAGC | 0.966 |
| GCAGAT | 0.924 |
| GGTCCA | 0.824 |
| CAGCTC | 0.941 |
| GTACAC | 1.18 |
| CTACGC | 1.59 |
| CGCCGG | 0.985 |
| ACCCAT | 1.17 |
| GTATCG | 0.786 |
| AGGTAA | 0.91 |

| Sequence | binding signal |
| --- | --- |
| CTCGGC | 1.45 |
| AGTTTT | 0.939 |
| CACCTG | 0.988 |
| GGACTC | 0.933 |
| TAAACC | 1.19 |
| CTATGT | 1.04 |
| TAGAAC | 0.98 |
| AGGTTT | 1.06 |
| GGATTC | 0.975 |
| GTTTGC | 1.03 |
| TCGTTG | 0.878 |
| TCAGTA | 0.96 |
| GTTTTT | 1.42 |
| TTTAAC | 1.19 |
| GACATG | 0.95 |
| CGGGCT | 0.946 |
| CCTCCT | 1.7 |
| TATAAT | 1.15 |
| AAAGGC | 0.891 |

Some of the entries so far, as tab-separated lines:
Sequence	binding signal
TAAACC	1.19
CTATGT	1.04
TAGAAC	0.98
